Data as given in PubChem BioAssay AID652259 (Drosophila RNAi Screening Center, 2013).
The deposit covers about 22,000 reagents; this is a random part of those with a known target gene and a result. In the full data, 233 (1.1%) got an active call. 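Light values are raw, unnormalised plate reads; the ratio scores behind the reporter calls were not deposited.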 A number with no mark means an inactive call. Reagent sequences are not shown. Not stated in the record: the amount of reagent, the time to read-out, the dose of the treatment.

- Screen: 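Knock-downs that push a Wingless-driven reporter up or down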 (primary screen)
- Cell system: Drosophila clone 8 imaginal disc epithelial cells
- Knock-down reagent: long dsRNA against Drosophila genes
- Challenge: pathway stimulated by co-transfected Wingless expression plasmid
- Measured: 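Firefly luciferase from a tcf-site Wingless reporter, measured alongside co-transfected Renilla luciferase that tracks transfection; pathway stimulated by a Wingless plasmid; the firefly-to-Renilla ratio is not deposited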
- Reading the numbers: firefly reporter light: higher = more Wg reporter light, before normalisation; Renilla control light: higher = more transfected or surviving cells
- Hit rule: 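a knock-down is a candidate when at least two out of four statistical tests show it departing from its plate mean; one test alone signals a weak candidate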
- Meaning of the calls: active = candidate regulator (raises or lowers reporter); inactive = not a candidate

{"predicted target":"CG15631","DRSC id":"DRSC00466","firefly reporter light, replicate 1":1629,"firefly reporter light, replicate 2":5574,"Renilla control light, replicate 1":868,"Renilla control light, replicate 2":2517}
{"predicted target":"TfIIA-S-2","DRSC id":"DRSC17791","firefly reporter light, replicate 1":16215,"Renilla control light, replicate 1":14299}
{"predicted target":"CG12438","DRSC id":"DRSC02167","firefly reporter light, replicate 1":2233,"firefly reporter light, replicate 2":6274,"Renilla control light, replicate 1":518,"Renilla control light, replicate 2":2804}
{"predicted target":"CR12798","DRSC id":"DRSC21078","firefly reporter light, replicate 1":18400,"Renilla control light, replicate 1":8320}
{"predicted target":"gd","DRSC id":"DRSC20336","firefly reporter light, replicate 1":16744,"Renilla control light, replicate 1":9227}
{"predicted target":"CG14177 (retired record)","DRSC id":"DRSC10176","firefly reporter light, replicate 1":10355,"firefly reporter light, replicate 2":7.61e5,"Renilla control light, replicate 1":4577,"Renilla control light, replicate 2":3.46e5}
{"predicted target":"CG42335","DRSC id":"DRSC14597","firefly reporter light, replicate 1":31465,"Renilla control light, replicate 1":4966}
{"predicted target":"CG42335","DRSC id":"DRSC15892","firefly reporter light, replicate 1":30481,"Renilla control light, replicate 1":5254}
{"predicted target":"CG2889","DRSC id":"DRSC18236","firefly reporter light, replicate 1":21461,"Renilla control light, replicate 1":8164}
{"predicted target":"CG9932","DRSC id":"DRSC03275","reporter change call, replicate 1":"Wg reporter activity lowered","firefly reporter light, replicate 1":1178,"firefly reporter light, replicate 2":3528,"Renilla control light, replicate 1":994,"Renilla control light, replicate 2":1857}
{"predicted target":"PI31","DRSC id":"DRSC07306","firefly reporter light, replicate 1":10848,"Renilla control light, replicate 1":3341}
{"predicted target":"CG9743","DRSC id":"DRSC16552","firefly reporter light, replicate 1":5347,"Renilla control light, replicate 1":1840}
{"predicted target":"Vsp37A","DRSC id":"DRSC18794","firefly reporter light, replicate 1":21904,"Renilla control light, replicate 1":11920}
{"predicted target":"CG4324","DRSC id":"DRSC04462","firefly reporter light, replicate 1":2758,"firefly reporter light, replicate 2":6868,"Renilla control light, replicate 1":469,"Renilla control light, replicate 2":2076}

5 of these entries in another layout:
CR12798 [DRSC21078]: firefly reporter light, replicate 1 = 18400; Renilla control light, replicate 1 = 8320
gd [DRSC20336]: firefly reporter light, replicate 1 = 16744; Renilla control light, replicate 1 = 9227
CG14177 (retired record) [DRSC10176]: firefly reporter light, replicate 1 = 10355; firefly reporter light, replicate 2 = 7.61e5; Renilla control light, replicate 1 = 4577; Renilla control light, replicate 2 = 3.46e5
CG42335 [DRSC14597]: firefly reporter light, replicate 1 = 31465; Renilla control light, replicate 1 = 4966
CG42335 [DRSC15892]: firefly reporter light, replicate 1 = 30481; Renilla control light, replicate 1 = 5254

Continued:
{"predicted target":"fzo","DRSC id":"DRSC16954","firefly reporter light, replicate 1":10711,"Renilla control light, replicate 1":11593}
{"predicted target":"CG12398","DRSC id":"DRSC19454","firefly reporter light, replicate 1":16182,"Renilla control light, replicate 1":7434}
{"predicted target":"dgt6","DRSC id":"DRSC14424","firefly reporter light, replicate 1":2246,"firefly reporter light, replicate 2":8428,"Renilla control light, replicate 1":827,"Renilla control light, replicate 2":2828}
{"predicted target":"CG11635","DRSC id":"DRSC06075","firefly reporter light, replicate 1":3514,"firefly reporter light, replicate 2":7339,"Renilla control light, replicate 1":704,"Renilla control light, replicate 2":2720}
{"predicted target":"mbt","DRSC id":"DRSC20348","firefly reporter light, replicate 1":15808,"Renilla control light, replicate 1":5202}
{"predicted target":"CG14011","DRSC id":"DRSC02343","firefly reporter light, replicate 1":1888,"firefly reporter light, replicate 2":5714,"Renilla control light, replicate 1":779,"Renilla control light, replicate 2":2753}
{"predicted target":"CheA86a","DRSC id":"DRSC12839","firefly reporter light, replicate 1":3257,"Renilla control light, replicate 1":235}
{"predicted target":"snRNA:U4atac","DRSC id":"DRSC12055","firefly reporter light, replicate 1":3651,"Renilla control light, replicate 1":1357}
{"predicted target":"chk","DRSC id":"DRSC04994","firefly reporter light, replicate 1":8146,"Renilla control light, replicate 1":2921}
{"predicted target":"CG43149","DRSC id":"DRSC07859","firefly reporter light, replicate 1":2087,"Renilla control light, replicate 1":1476}
{"predicted target":"TwdlN","DRSC id":"DRSC15813","firefly reporter light, replicate 1":8068,"Renilla control light, replicate 1":3249}
{"predicted target":"Rbsn-5","DRSC id":"DRSC03094","firefly reporter light, replicate 1":10184,"Renilla control light, replicate 1":5336}
{"predicted target":"CG9184","DRSC id":"DRSC08636","firefly reporter light, replicate 1":9685,"Renilla control light, replicate 1":4243}
{"predicted target":"CG9184","DRSC id":"DRSC22184","firefly reporter light, replicate 1":3.69e5,"firefly reporter light, replicate 2":3.53e5,"Renilla control light, replicate 1":1.74e5,"Renilla control light, replicate 2":1.58e5}
{"predicted target":"dgo","DRSC id":"DRSC06134","firefly reporter light, replicate 1":24035,"Renilla control light, replicate 1":6025}
{"predicted target":"Ptp4E","DRSC id":"DRSC18701","firefly reporter light, replicate 1":2202,"firefly reporter light, replicate 2":9408,"Renilla control light, replicate 1":662,"Renilla control light, replicate 2":1571}
{"predicted target":"CG13148","DRSC id":"DRSC06275","firefly reporter light, replicate 1":9145,"Renilla control light, replicate 1":2294}
{"predicted target":"nej","DRSC id":"DRSC18006","firefly reporter light, replicate 1":31787,"Renilla control light, replicate 1":5520}
{"predicted target":"nej","DRSC id":"DRSC18801","reporter change call, replicate 1":"Wg reporter activity raised (active)","firefly reporter light, replicate 1":9490,"firefly reporter light, replicate 2":22637,"Renilla control light, replicate 1":483,"Renilla control light, replicate 2":1296}
